PubChem BioAssay AID1224830 | NIAID | 2016
Assay: 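Genes whose knock-down alters the TNF-alpha reporter response to LPS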 (primary screen). Cells: human THP-1 monocytic leukaemia cells, TNF dual-luciferase reporter clone, PMA-differentiated to macrophage-like cells. Reagents: siRNA pool against human genes, 50 nM. Duration: LPS for 4 h, given about 3 days after siRNA transfection. Treatment: bacterial LPS (TLR4 ligand), 10 ng/ml. Detection: 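Ratio of firefly to renilla light, scaled to the plate median and expressed as a robust z-score per replicate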. Direction: TNF reporter robust z-score: higher = stronger TNF reporter response to LPS. Rule for the call: 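a well is active when its z-score exceeds 2.8 or falls below -1.5; control wells carry no call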.
The deposit covers about 18,000 reagents; below is a part drawn at random. About 2,900 of all reagents (16%) count as active. 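Calls are made per well; low scores hint the gene aids the LPS response, high scores that it dampens it.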 A number with no mark means an inactive call. Repeated entries: four replicate wells of each siRNA pool. No sequences are given here.

target gene | TNF reporter robust z-score
SPTBN5 | 0.13
SPTBN5 | 0.57
SPTBN5 | 0.4
SPTBN5 | -0.39
RBBP8 | 0.23
RBBP8 | -0.05
RBBP8 | 0
RBBP8 | 0.16
BCLAF3 | 2.32
BCLAF3 | 0.85
BCLAF3 | -0.99
BCLAF3 | -0.88
CREB3L3 | -0.14
CREB3L3 | -0.87
CREB3L3 | -0.83
CREB3L3 | 0.22
EEIG1 | 0.02
EEIG1 | 0.11
EEIG1 | -0.05
EEIG1 | 1.55
ZNF174 | 0.25
ZNF174 | -0.26
ZNF174 | 0.57
EGFL6 | 0.38
EGFL6 | 2.64
EGFL6 | 0.94
EGFL6 | 0.99
KEL | 1.72
KEL | -0.33
KEL | -1.15
KEL | -0.3
SLC25A6 | 2.69
SLC25A6 | 2.01
SLC25A6 | 3.17 (active)
SLC25A6 | 3.87 (active)
KRTAP20-2 | -1.02
KRTAP20-2 | -0.76
KRTAP20-2 | -1.42
KRTAP20-2 | -0.39
GEN1 | -0.37
GEN1 | -0.3
GEN1 | -0.93
GEN1 | 0.07
SWSAP1 | -0.45
SWSAP1 | 0.03
SWSAP1 | 0.72
SWSAP1 | -0.79
CRIP1 | 1.22
CRIP1 | 2.62
CRIP1 | 0.08
CRIP1 | 1.54
FCGR1A | 2.71
FCGR1A | 1.11
FCGR1A | -0.25
FCGR1A | 2.49
PUS3 | -0.32
PUS3 | 0.68
PUS3 | 0.03
IGLL1 | 0.22
IGLL1 | 0.29
IGLL1 | 1.32
CNOT12 | 1.01
CNOT12 | 0.38
CNOT12 | 0.88
CNOT12 | 0.96
SHOX | -0.34
SHOX | 0.92
SHOX | 1.37
SHOX | 2.17
RAB18 | -0.87
RAB18 | 0.21
RAB18 | -0.77
RAB18 | 0.72
RBM17 | 0.64
RBM17 | 1.28
RBM17 | 0.75
RBM17 | 0.42
S100A4 | 0.37
S100A4 | 1.18
S100A4 | 0.8
S100A4 | 0.31
SMURF2 | -0.98
SMURF2 | -0.43
SMURF2 | 1.04
SMURF2 | -0.52
GIMAP4 | -0.28
GIMAP4 | -0.53
GIMAP4 | -1.03
GIMAP4 | 0.62
PGA4 | -1.14
PGA4 | -0.13
PGA4 | -0.55
PGA4 | 0.03
TNS3 | 2.02
TNS3 | 1.92
TNS3 | 1.94
TNS3 | -0.56
MFAP3L | 0.23
MFAP3L | 0.07
MFAP3L | 0.29
MFAP3L | 1.26
ARL5A | 0.06
ARL5A | -0.11
ARL5A | 0.45
ARL5A | 1.02
MRPL13 | -0.96
MRPL13 | -0.58
MRPL13 | -0.3
MRPL13 | 1.29
TAOK3 | -1.35
TAOK3 | -1.05
TAOK3 | -1.64 (active)
TAOK3 | -0.37
DEK | 1.33
DEK | 1
DEK | 1.42
DEK | 1.67
CEBPE | -0.72
CEBPE | -0.41
CEBPE | -0.34
CEBPE | -0.33
MISP | -0.18
MISP | 1.66
MISP | 0.8
MISP | 0.51
CORO1C | 0.31
CORO1C | 2.58
CORO1C | -0.39
CORO1C | -0.75
ZNF346 | -0.28
ZNF346 | 0.47
ZNF346 | -0.56
ZNF346 | -0.02
IL17RD | -1.1
IL17RD | -1.4
IL17RD | -0.88
IL17RD | 0.37
ASS1 | 1.42
ASS1 | 1.31
ASS1 | 0.73
ASS1 | 1.35

Active calls, of those listed so far:
target gene | TNF reporter robust z-score
SLC25A6 | 3.17 (active)
SLC25A6 | 3.87 (active)
TAOK3 | -1.64 (active)
